This note sets out measurements from paper PMC11508090.

No constants are given. Whether binding was seen depends on the method and setting. In cells and extracts the contact can be indirect. These calls come from enrichment with a bait or labelling near it, and not all partners need be listed. For some of these results: A no says only that the protein was not detected with the bait.

Experiment [1] deals with T1, Ecm11-TurboID (S. cerevisiae) (UniProt Q04110).
T1 sequence: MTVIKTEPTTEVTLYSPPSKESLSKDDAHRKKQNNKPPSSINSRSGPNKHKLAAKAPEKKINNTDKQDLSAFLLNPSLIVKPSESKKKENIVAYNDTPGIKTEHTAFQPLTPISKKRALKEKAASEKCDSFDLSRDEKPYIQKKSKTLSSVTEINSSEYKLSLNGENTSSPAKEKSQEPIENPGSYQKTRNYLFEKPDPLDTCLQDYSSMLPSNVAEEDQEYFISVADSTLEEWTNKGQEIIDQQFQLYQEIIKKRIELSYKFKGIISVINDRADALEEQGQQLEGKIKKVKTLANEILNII
As to the kind of experiment: proximity labelling; eleven TurboID fusion strains (ndt80, homozygous) and a no-TurboID control, ~24 h sporulation, two replicates; TCA extract, streptavidin-sepharose pull-down, trypsin, UPLC-MS/MS; targets = in both replicates and in neither control.

Experiment [2] deals with T2, Mlh3-TurboID (S. cerevisiae) (UniProt Q12083).
T2 sequence: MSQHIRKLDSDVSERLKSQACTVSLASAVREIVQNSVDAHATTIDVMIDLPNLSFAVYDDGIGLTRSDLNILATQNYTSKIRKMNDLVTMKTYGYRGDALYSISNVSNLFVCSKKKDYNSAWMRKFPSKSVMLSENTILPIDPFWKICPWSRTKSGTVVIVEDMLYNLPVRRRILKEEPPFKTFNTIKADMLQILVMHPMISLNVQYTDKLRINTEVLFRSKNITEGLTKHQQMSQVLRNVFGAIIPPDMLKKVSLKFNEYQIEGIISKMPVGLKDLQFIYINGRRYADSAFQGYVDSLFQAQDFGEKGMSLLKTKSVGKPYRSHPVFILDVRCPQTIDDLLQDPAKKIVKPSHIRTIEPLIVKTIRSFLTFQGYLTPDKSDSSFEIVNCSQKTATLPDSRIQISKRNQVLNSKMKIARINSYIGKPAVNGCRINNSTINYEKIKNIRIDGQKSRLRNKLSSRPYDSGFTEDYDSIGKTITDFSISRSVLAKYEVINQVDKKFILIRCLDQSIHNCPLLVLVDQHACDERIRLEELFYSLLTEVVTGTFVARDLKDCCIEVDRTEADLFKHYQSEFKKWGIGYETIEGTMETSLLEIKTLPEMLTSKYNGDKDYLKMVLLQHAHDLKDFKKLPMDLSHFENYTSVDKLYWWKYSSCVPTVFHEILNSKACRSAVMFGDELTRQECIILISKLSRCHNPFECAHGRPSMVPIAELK
Described as above.

Experiment [3] addresses T1, Ecm11-TurboID (S. cerevisiae). Nature of the experiment: proximity labelling; TurboID fusion allele (homozygous, or heterozygous where said) in ndt80 diploid cells, 24 h in sporulation medium, endogenous biotin; TCA extract, 8% or 12% SDS-PAGE, streptavidin:HRP blot; also done in mutant backgrounds in which the labelling was kept.
Experiment [4] addresses T3, Msh5-TurboID (S. cerevisiae) (UniProt Q12175).
T3 sequence: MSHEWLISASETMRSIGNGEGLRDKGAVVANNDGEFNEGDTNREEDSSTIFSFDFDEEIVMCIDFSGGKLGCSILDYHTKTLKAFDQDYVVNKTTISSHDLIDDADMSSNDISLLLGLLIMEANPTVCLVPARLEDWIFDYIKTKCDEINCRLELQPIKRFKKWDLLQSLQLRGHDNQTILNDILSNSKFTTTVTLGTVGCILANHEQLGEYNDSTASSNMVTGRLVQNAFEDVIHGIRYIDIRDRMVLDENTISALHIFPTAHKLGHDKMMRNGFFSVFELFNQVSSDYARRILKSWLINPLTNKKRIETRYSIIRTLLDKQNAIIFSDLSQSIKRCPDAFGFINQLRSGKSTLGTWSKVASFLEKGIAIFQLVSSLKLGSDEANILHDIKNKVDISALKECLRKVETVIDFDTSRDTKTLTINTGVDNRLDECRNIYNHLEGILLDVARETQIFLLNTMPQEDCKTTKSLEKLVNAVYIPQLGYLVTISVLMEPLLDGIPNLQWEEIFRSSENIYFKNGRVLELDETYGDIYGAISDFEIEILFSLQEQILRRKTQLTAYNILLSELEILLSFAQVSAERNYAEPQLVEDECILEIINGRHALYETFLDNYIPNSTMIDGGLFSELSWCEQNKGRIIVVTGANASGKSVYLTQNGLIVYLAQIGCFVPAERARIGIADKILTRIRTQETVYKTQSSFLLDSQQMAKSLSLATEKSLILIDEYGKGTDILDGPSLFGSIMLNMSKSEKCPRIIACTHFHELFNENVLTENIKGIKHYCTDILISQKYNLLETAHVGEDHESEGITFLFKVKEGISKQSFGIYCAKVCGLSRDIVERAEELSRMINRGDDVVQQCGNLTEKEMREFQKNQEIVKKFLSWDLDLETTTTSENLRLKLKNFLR
The description is as above.

Experiment [5] concerns the target T4, TurboID-Gmc2 (S. cerevisiae) (UniProt Q06201).
T4 sequence: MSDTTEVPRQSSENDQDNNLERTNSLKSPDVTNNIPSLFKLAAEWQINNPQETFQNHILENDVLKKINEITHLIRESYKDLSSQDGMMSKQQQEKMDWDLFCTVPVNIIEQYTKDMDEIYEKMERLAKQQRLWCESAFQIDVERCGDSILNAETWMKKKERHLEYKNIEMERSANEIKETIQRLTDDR
The description is as above.

The target of experiment [6] is Zip4[N919Q]iTurboID (S. cerevisiae). Described as above.
For experiment [7], the target named is Zip4iTurboID (S. cerevisiae). The experiment is described as above.

Regarding Zip4 (S. cerevisiae), the binding entry in experiment [1] and in experiment [2] was “no binding” in each case.

B1: Ecm11 (protein, UniProt Q04110 1-302)
chain: MTVIKTEPTTEVTLYSPPSKESLSKDDAHRKKQNNKPPSSINSRSGPNKHKLAAKAPEKKINNTDKQDLSAFLLNPSLIVKPSESKKKENIVAYNDTPGIKTEHTAFQPLTPISKKRALKEKAASEKCDSFDLSRDEKPYIQKKSKTLSSVTEINSSEYKLSLNGENTSSPAKEKSQEPIENPGSYQKTRNYLFEKPDPLDTCLQDYSSMLPSNVAEEDQEYFISVADSTLEEWTNKGQEIIDQQFQLYQEIIKKRIELSYKFKGIISVINDRADALEEQGQQLEGKIKKVKTLANEILNII
Take B1: the binding result is “binds” in experiment [3]; “binds weakly” in experiment [4]; “binds” in experiment [5]; “no binding” in experiment [6]; “binds” in experiment [7].
